Test results reported in PubChem BioAssay AID504648 (National Center for Advancing Translational Sciences (NCATS), 2011).
Screen size: about 390,000 compounds; about 610 (0.16%) were called active. This list was built around the results that the source calls inconclusive (neither active nor inactive); the mix of calls is not that of the screen. The call rests on the fitted dose curve; in most records, active means well fitted inhibition curve with a large enough effect; inconclusive means small, poorly fitted or top-dose-only effect, or effect the other way, or another doubt; inactive means no such curve, though single readings can be large or run the other way. Potencies beside an inconclusive call are fits to weak or partial responses and may not hold up.

Experiment: Nrf2 qHTS screen for inhibitors: counterscreen for cytotoxicity
Conditions: A549 ARE-Fluc cells, CellTiter-Fluor viability, 18-24 h; series mostly up to 46 µM
Method in brief: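 A549 ARE_Fluc cells in 5% FBS OPTI-MEM were exposed to compounds in concentration-response for 18-24 h at 37 deg C. Viability was read by CellTiter-Fluor fluorescence (Ex 405/Em 525) after 30 min, before the luciferase read.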
Potency means the concentration at half of the fitted maximal effect.

| SMILES | Potency |
| --- | --- |
| O=C(NCCc1cn2ccccc2n1)C1CCCCC1 | inconclusive: 1.46 µM [activator, full curve, poor fit] |
| N#Cc1ccc(-c2ccccc2)nc1SCC(=O)c1cc2ccccc2oc1=O | inconclusive: 29.1 µM [falling, partial curve, poor fit] |
| CCOc1ccc(NS(=O)(=O)c2ccc(NS(=O)(=O)c3ccccc3)cc2)cc1 | inactive |
| Cc1ccc2nc(NC(=O)c3ccc(OCC4CCCO4)cc3)sc2c1 (centres undefined) | inconclusive: 11.6 µM [falling, partial curve, poor fit] |
| Cc1ccc(C2c3c(-c4ccccc4O)n[nH]c3C(=O)N2CCc2ccccc2)cc1 (centres undefined) | inconclusive: 29.1 µM [falling, single point] |
| CN1C2=CC=CC=CC2=[N+](C)C12C=CC(=[N+]([O-])[O-])C=C2[N+](=O)[O-] (centres undefined) | active: 18.4 µM |
| Cc1nc(SCC(=O)Nc2ccc(S(=O)(=O)N3CCOCC3)cc2)c2c(C)c(C)sc2n1 | inconclusive: 20.6 µM [falling, partial curve] |
| Cc1ccc(C)c(OCCC(=O)Nc2cccc(S(=O)(=O)N3CCCCC3)c2)c1 | inconclusive: 20.6 µM [falling, partial curve, poor fit] |
| C=CCSc1nnc(N2C(=O)C(O)=C(C(=O)c3ccco3)C2c2ccc(F)cc2)s1 (centres undefined) | inconclusive: 16.4 µM [falling, partial curve, poor fit] |
| CCOC(=O)C(C(=O)OCC)c1cc(Br)c2noc3c2c1C(=O)c1ccccc1-3 | inconclusive: 18.4 µM [falling, single point] |
| O=C(Nc1ccc(Cl)cc1)c1cc(S(=O)(=O)N2CCCc3ccccc32)ccc1F | inactive |
| COC(=O)C1=C(C)N(c2ccc(OC)c(OC)c2)C(=O)/C1=C\c1ccco1 | inactive |
| O=C(NC(=S)Nc1cccc(Cl)c1N1CCCCC1)c1cccs1 | inconclusive: 29.1 µM [falling, single point] |
| C#CCn1c2ccccc2c2nc3ccccc3nc21 | inactive |
| Cc1c(C(=O)Nc2nc3ccccc3[nH]2)oc2c(Cl)cccc12 | inactive |
| COc1ccc(S(=O)(=O)/N=C2/NC(=O)/C(=C\c3ccco3)S2)cc1 | inconclusive: 32.6 µM [falling, partial curve, poor fit] |
| CCN1CCN(c2nc(Nc3cccc(F)c3)nc(N)c2[N+](=O)[O-])CC1 | inconclusive: 23.1 µM [falling, partial curve, poor fit] |
| CCOc1ccc(C2=C(C(=O)CC)Sc3nncn3N2C(=O)CC)cc1 | inconclusive: 18.4 µM [falling, partial curve, poor fit] |
| Cc1ccc(S(=O)(=O)N2CCCCC2CCNC(=O)C(=O)NCCc2ccco2)cc1 (centres undefined) | inconclusive: 6.51 µM [falling, partial curve, poor fit] |
| COC(=O)c1ccc(Cl)cc1N(Cc1c(F)cccc1Cl)S(C)(=O)=O | inconclusive: 29.1 µM [falling, single point] |
| O=c1[nH]c2cccc(Cl)c2n(CCNc2ncc(C(F)(F)F)cc2Cl)c1=O | inconclusive: 1.64 µM [falling, partial curve, poor fit] |
| COc1ccc(NC(=O)Cn2c(=O)n(-c3ccc(CC(=O)NCc4ccco4)cc3)c(=O)c3ccccc32)cc1 | inconclusive: 23.1 µM [falling, partial curve, poor fit] |

| SMILES | Potency |
| --- | --- |
| O=C(c1ccc([N+](=O)[O-])s1)N1CCN(c2ccccc2)CC1 | inconclusive: 16.4 µM [falling, partial curve] |
| Cc1nn(-c2ccccc2)c(C)c1/C=N/NC(=O)CSc1nc2ccccc2c(=O)n1-c1ccc(Br)cc1 | active: 18.4 µM |
| Cc1cccn2c(=O)c3cc(C(=O)NC4CCCC4)c(=N)n(C4CCCC4)c3nc12 | inconclusive: 20.6 µM [activator, single point] |
| O=C(Cc1ccc(Cl)cc1)N/N=C/c1ccccc1 | inconclusive: 32.6 µM [activator, single point] |
| CCOC(=O)C(C)Sc1snnc1C (centres undefined) | inconclusive: 1.16 µM [falling, partial curve, poor fit] |
| Clc1ccc(N=c2ssnc2Cl)cc1 | inconclusive: 18.4 µM [falling, partial curve] |
| Oc1ccc(Nc2nc(-c3ccc(Cl)cc3)nc3ccccc23)cc1 | inactive |
| Cc1ccc(C(C)NC(=O)CSc2ccc(S(=O)(=O)N3CCOCC3)cn2)cc1C (centres undefined) | inactive |
| O=C(C1=C(O)C(=O)N(c2nc3ccc(Cl)cc3s2)C1c1ccco1)c1ccco1 (centres undefined) | inconclusive: 20.6 µM [falling, partial curve, poor fit] |
| COc1ccc(C(=O)c2cn(Cc3cccc(C)c3)c3cc4c(cc3c2=O)OCCO4)cc1OC | inconclusive: 23.1 µM [falling, partial curve, poor fit] |
| Cc1cc(C)c(S(=O)(=O)Nc2cccc(-c3cn4ccccc4n3)c2)c(C)c1 | inconclusive: 32.6 µM [falling, partial curve, poor fit] |
| Cc1c(C)c2ccc(OCC(=O)NCCN3CCOCC3)c(C)c2oc1=O | inconclusive: 23.1 µM [activator, partial curve, poor fit] |
| Cc1ccc([N+](=O)[O-])cc1NC(=O)CN(C(=O)c1ccc(Cl)cc1)C1CCCCC1 | inconclusive: 7.31 µM [falling, single point] |
| Cc1c(C(=O)Nc2ccccc2N2CCN(C)CC2)oc2ccc(F)cc12 | inconclusive: 16.4 µM [falling, partial curve, poor fit] |
| Cc1ccc(N/N=C(\C#N)C(=N)N2CCCCC2)cc1 | inconclusive: 20.6 µM [falling, partial curve, poor fit] |
| Cc1nc(SCC(=O)Nc2ccc(F)cc2)c(C#N)c(C)c1CC(=O)c1ccc(Br)cc1 | active: 11.6 µM |
| CC1CCc2nc(-c3cc4ccc(O)cc4oc3=O)sc2C1 (centres undefined) | inconclusive: 18.4 µM [activator, partial curve] |
| O=C(COc1ccccc1-c1ccccc1)N/N=C/c1cccc2ccccc12 | inconclusive: 7.31 µM [falling, partial curve, poor fit] |
| O=C(N/N=C/c1ccc(Cl)c([N+](=O)[O-])c1)c1cc(-c2ccc3c4c(cccc24)CC3)n[nH]1 | inconclusive: 32.6 µM [falling, partial curve, poor fit] |
| CN(C)c1cccc(C(=O)Nc2ccc(-c3nc4ccccc4s3)cc2)c1 | inactive |
| N#Cc1ccc(-c2csc(NNC(=O)c3ccc(Br)cc3)n2)cc1 | inconclusive: 20.6 µM [falling, partial curve, poor fit] |
| CCc1cc2c(CN3CCN(CC)CC3)cc(=O)oc2cc1O | inconclusive: 20.6 µM [activator, single point] |

Taken from above.
Potency with `Cc1nc(SCC(=O)Nc2ccc(F)cc2)c(C#N)c(C)c1CC(=O)c1ccc(Br)cc1` is entered as active: 11.6 µM
Potency with `O=C(COc1ccccc1-c1ccccc1)N/N=C/c1cccc2ccccc12` is entered as inconclusive: 7.31 µM [falling, partial curve, poor fit]
Potency with `Cc1ccc([N+](=O)[O-])cc1NC(=O)CN(C(=O)c1ccc(Cl)cc1)C1CCCCC1` is entered as inconclusive: 7.31 µM [falling, single point]

(more compounds)

| SMILES | Potency |
| --- | --- |
| O=C(c1csc2c1CCCC2)N1CCN(c2cccc(C(F)(F)F)c2)CC1 | inconclusive: 20.6 µM [activator, single point] |
| Cc1cccc(NC(=S)NCCc2c[nH]c3ccccc23)c1 | inactive |
| O=C(/C=C/NNC(=O)c1ccc(Cl)cc1)c1ccccc1 | inconclusive: 20.6 µM [falling, partial curve, poor fit] |
| CCOC(=O)Cn1nc(-c2ccc(F)cc2)cc(Cc2ccccc2)c1=O | inactive |
| Cc1ccc(S(=O)(=O)N2CCN(c3nc(C#N)nc4ccccc34)CC2)cc1 | inactive |
| COc1cccc(CC(=O)Nc2nc(-c3cc(OC)ccc3OC)cs2)c1 | inactive |
| CCN(c1ccccc1)S(=O)(=O)c1ccc(NCC2COc3ccccc3O2)nc1 (centres undefined) | inconclusive: 29.1 µM [falling, partial curve, poor fit] |
| O=C(Nc1cccnc1)C1CC(=O)N(c2ccc(F)cc2)C1 (centres undefined) | inconclusive: 7.31 µM [falling, partial curve, poor fit] |
| COc1cccc(N(Cc2nnc3n2CCCCC3)C(=O)Nc2cccc(Cl)c2)c1 | inactive |
| CCOC(=O)N1CCN(/[N+]([O-])=N/Oc2ccc([N+](=O)[O-])cc2[N+](=O)[O-])CC1 | inconclusive: 29.1 µM [falling, partial curve, poor fit] |
| O=C(Nc1ccc(N2CCOCC2)c(Cl)c1)c1ccc(F)cc1 | inactive |
| Cc1cccc2cc(C#N)c(SCC(=O)NNC(=O)Cc3ccccc3)nc12 | inconclusive: 11.6 µM [falling, partial curve, poor fit] |
| CCCn1c(N2CCC(Cc3ccccc3)CC2)nc2c1c(=O)[nH]c(=O)n2C | inconclusive: 18.4 µM [falling, partial curve, poor fit] |
| CCN1CCN(CCCNC(=O)c2ccc3c(c2)N(Cc2ccc(C)cc2)CCS3)CC1 | inconclusive: 20.6 µM [falling, partial curve, poor fit] |
| CCC(C)NC(=O)c1c(N)n(/N=C/c2ccccn2)c2nc3ccccc3nc12 (centres undefined) | inconclusive: 29.1 µM [falling, single point] |
| O=C(C#Cc1ccccc1)c1ccco1 | inconclusive: 16.4 µM [falling, partial curve] |
| C=CCOc1ccc(/C=C/C(=O)OCC(=O)NCc2ccco2)cc1 | inactive |
| Cc1cc(C)c2c(n1)nn1c(C)c(CCC(=O)NCc3ccco3)c(C)nc21 | inconclusive: 25.9 µM [falling, partial curve, poor fit] |
| Oc1nc(Nc2cccc(Cl)c2)sc1/C=C1\C=Nc2ccccc21 | inconclusive: 13 µM [falling, partial curve] |
| COc1ccc(C(CCNC(C)c2ccccc2)C(C)C)cc1 (centres undefined) | inactive |
